Results published in EP0402313A1, “Novel endothelin derivative” (Japat Ltd, priority 1989, dated 1990).
At least one peptide structure holds a part that was inferred or is arguable (an end, a ring closure or a residue).

Assay: oxidation of the 7th methionine during iodination of the 13th tyrosine
Details: iodination of the 13th tyrosine (Example 2 and Reference Example)

SMILES: CCCC[C@@H]1NC(=O)[C@H](CC(C)C)NC(=O)[C@H](CO)NC(=O)[C@H](CO)NC(=O)[C@@H]2CSSC[C@H](NC(=O)[C@H](CCC(=O)O)NC(=O)[C@H](CCCCN)NC(=O)[C@H](CC(=O)O)NC1=O)C(=O)N[C@@H](C(C)C)C(=O)N[C@@H](Cc1ccc(O)cc1)C(=O)N[C@@H](Cc1ccccc1)C(=O)N[C@H](C(=O)N[C@@H](Cc1c[nH]cn1)C(=O)N[C@@H](CC(C)C)C(=O)N[C@@H](CC(=O)O)C(=O)N[C@H](C(=O)N[C@H](C(=O)N[C@@H](Cc1c[nH]c3ccccc13)C(=O)O)[C@@H](C)CC)[C@@H](C)CC)CSSC[C@H](N)C(=O)N[C@@H](CO)C(=O)N2 [Derivative I (R₁=Nle), 7-Nle-endothelin-1]
- oxidized byproducts: no oxidized byproducts
